Data: publication PMC7275032
Results are given in words; binding and its absence hold for the method and conditions named. Binding calls can cover weak binding; strength is not graded here. For some assays here: Sequences can lack the tags named with a protein.

Columns and labels:
[1] = target: T1, SPA-2 (polarisome protein) (N. crassa) (UniProt V5IQM7); assay: native gel or EMSA; 3-12% blue native PAGE of N. crassa extracts at 4 °C, blot with anti-HA-HRP; wild type, deletion strains and deletion variants of the partner
T1 sequence: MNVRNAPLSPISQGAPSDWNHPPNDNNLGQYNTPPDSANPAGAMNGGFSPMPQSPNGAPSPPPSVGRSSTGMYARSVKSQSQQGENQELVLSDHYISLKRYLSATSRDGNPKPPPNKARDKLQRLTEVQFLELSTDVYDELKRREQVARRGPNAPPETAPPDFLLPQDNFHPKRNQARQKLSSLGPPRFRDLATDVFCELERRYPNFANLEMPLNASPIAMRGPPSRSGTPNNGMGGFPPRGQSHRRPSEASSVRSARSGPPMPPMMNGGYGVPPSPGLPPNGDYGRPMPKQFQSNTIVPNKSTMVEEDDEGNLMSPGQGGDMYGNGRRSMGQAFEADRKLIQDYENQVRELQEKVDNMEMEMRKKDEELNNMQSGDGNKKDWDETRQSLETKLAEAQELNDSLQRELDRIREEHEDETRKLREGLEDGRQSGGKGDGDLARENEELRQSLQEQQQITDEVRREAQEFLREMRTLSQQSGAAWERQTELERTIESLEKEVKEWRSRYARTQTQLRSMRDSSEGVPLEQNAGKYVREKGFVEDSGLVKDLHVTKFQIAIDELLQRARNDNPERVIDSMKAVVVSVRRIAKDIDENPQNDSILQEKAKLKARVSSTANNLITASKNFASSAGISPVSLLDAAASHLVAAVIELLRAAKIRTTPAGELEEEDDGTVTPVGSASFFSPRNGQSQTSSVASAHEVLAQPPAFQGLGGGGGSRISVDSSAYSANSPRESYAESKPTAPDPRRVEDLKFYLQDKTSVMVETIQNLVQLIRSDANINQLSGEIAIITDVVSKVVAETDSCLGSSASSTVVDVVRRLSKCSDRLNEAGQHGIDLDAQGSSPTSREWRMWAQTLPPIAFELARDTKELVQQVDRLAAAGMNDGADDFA

[2] = target: T2, SPA-2, HA-epitope tagged, fused to a C-terminal peroxisome tail-anchor (TA peroxisome) (N. crassa) (UniProt V5IQM7); assay: ectopic targeting to the peroxisome surface, recruitment of mGFP fusions seen by confocal microscopy; HA-tagged protein with C-terminal PEX-26 tail-anchor combined by sexual crosses with mGFP fusion proteins; mCherry-PTS1 as peroxisome marker; living hyphae
T2 sequence: T1 sequence

Row | binding [1] | binding [2] | Substance
1 | binds |  | JANUS-1 (JNS-1) (from UniProt Q1K4U3)
2 |  | binds | JNS-1 mGFP fusion protein (N. crassa)
